In PMC9106349:
No constants are given. Whether binding was seen depends on the method and setting. In cells and extracts the contact can be indirect. Some binding calls cover weakened binding; strength is not graded here. Sequences can lack the tags named with a protein.

By UniProt entry, the sequences of proteins in these tests, tags left out.
UniProt Q9ULV0: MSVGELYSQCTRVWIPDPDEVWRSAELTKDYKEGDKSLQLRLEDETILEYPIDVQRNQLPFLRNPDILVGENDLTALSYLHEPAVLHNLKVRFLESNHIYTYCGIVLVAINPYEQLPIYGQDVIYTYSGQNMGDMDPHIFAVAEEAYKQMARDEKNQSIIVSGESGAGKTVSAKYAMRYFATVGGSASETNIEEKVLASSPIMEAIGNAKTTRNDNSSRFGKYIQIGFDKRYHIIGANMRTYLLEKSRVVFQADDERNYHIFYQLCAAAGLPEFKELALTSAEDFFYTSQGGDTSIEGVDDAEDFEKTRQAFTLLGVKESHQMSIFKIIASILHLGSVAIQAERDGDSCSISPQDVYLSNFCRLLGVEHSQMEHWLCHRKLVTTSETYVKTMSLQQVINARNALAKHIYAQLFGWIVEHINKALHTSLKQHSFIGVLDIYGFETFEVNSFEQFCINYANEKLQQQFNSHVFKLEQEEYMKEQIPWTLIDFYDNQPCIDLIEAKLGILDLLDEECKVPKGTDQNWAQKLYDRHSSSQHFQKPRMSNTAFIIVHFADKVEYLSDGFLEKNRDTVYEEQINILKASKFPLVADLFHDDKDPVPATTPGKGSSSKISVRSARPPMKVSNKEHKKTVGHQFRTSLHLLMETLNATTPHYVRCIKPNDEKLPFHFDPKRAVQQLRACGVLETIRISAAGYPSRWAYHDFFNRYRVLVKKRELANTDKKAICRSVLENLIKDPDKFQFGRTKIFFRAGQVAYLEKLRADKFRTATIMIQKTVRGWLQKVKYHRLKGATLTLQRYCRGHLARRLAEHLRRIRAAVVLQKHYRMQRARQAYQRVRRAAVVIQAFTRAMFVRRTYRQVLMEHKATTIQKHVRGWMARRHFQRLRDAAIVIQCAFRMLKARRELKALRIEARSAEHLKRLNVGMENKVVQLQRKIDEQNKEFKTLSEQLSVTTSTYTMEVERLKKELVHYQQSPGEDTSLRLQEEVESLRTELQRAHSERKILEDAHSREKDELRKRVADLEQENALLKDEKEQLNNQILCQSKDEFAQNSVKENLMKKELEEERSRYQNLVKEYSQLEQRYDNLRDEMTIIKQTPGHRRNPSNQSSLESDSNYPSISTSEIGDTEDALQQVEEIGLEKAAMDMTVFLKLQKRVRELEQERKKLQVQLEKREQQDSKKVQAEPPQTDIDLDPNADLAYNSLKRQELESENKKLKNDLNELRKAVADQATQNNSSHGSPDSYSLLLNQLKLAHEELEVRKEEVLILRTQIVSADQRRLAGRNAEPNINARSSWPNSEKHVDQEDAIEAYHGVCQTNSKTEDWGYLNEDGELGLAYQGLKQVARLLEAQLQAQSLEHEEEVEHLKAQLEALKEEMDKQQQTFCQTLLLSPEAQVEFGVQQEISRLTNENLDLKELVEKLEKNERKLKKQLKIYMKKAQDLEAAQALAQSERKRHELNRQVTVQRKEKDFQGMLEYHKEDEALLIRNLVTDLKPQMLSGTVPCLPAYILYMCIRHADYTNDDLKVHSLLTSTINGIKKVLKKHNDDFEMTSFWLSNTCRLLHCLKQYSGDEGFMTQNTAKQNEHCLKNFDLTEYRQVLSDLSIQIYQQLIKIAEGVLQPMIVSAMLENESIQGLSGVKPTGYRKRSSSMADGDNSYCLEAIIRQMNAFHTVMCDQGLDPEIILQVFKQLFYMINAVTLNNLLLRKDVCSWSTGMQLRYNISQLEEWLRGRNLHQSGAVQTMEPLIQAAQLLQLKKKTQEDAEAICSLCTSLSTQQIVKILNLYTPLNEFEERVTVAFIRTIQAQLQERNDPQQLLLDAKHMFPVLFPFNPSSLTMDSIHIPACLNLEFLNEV

Biological target: T1, myc-tagged UNC45A WT (human) (UniProt Q9H3U1)
T1 sequence: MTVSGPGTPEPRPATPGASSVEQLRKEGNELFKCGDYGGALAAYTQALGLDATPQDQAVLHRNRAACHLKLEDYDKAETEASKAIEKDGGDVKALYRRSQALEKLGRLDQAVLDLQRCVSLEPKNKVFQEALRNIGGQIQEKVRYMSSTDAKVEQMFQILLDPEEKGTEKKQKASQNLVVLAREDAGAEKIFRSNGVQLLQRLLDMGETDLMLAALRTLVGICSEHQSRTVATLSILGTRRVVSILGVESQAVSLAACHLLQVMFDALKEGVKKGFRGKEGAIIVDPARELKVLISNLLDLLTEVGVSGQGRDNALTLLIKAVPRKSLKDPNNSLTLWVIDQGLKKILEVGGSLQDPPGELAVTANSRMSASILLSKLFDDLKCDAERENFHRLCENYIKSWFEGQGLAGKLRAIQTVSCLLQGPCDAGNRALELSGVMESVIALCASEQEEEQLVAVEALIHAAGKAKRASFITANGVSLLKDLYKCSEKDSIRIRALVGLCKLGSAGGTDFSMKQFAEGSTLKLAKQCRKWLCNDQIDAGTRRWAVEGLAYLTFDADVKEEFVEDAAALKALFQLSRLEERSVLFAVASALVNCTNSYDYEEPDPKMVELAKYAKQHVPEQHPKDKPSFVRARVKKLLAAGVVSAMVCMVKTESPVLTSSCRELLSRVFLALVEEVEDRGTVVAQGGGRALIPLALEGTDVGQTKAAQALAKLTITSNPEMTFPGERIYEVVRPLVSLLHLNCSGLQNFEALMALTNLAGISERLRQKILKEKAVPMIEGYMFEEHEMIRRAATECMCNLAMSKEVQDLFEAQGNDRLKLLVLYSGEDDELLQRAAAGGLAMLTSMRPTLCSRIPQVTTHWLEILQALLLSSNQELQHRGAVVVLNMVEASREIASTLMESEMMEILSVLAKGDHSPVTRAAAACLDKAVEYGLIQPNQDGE
Assay: co-IP; myc immunoprecipitates of WT-UNC45A from Caco-2 lysate (μMACS c-myc Isolation Kit), Western blot for myosin VB and HSP90

Which binding does the source give for myosin VB (from UniProt Q9ULV0 1-1848) here?
Its binding is “binds”.
